# The other results are listed elsewhere or left out.
# Assays:
# Experiment in all cases: glycan array binding signal (z-score within array); higher = stronger binding
# Conditions in all cases: glycan notation: IUPAC condensed, linker removed; mutation: D21K
# Neu5Ac(a2-3)GalNAc = target: Neu5Ac(a2-3)GalNAc
# How it was run: (§1)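 The binding signal is a Z-score computed within each array. Data were drawn from 3228 arrays in the Consortium for Functional Glycomics database, restricted to those with a known protein sequence. Scores were averaged over arrays of the same protein sequence at different concentrations or buffers, and over linkers, and negative values can be taken as non-binding.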
# [1] = target: Neu5Ac(a2-3)GalNAc(b1-4)GlcNAc
# How it was run: as §1
# [2] = target: Neu5Ac(a2-3)[GalNAc(b1-4)]Gal(b1-4)Glc
# How it was run: as §1
# [3] = target: Neu5Ac(a2-3)[GalNAc(b1-4)]Gal(b1-4)GlcNAc
# How it was run: as §1
# [4] = target: Neu5Ac(a2-3)[GalNAc(b1-4)]Gal(b1-4)GlcNAc(b1-3)GalNAc
# How it was run: as §1
# [5] = target: Neu5Ac(a2-3)[Neu5Ac(a2-6)]GalNAc
# How it was run: as §1
# Neu5Ac(a2-6)Gal = target: Neu5Ac(a2-6)Gal
# How it was run: as §1
# [6] = target: Neu5Ac(a2-6)Gal(b1-3)GlcNAc(b1-3)[Gal(b1-4)GlcNAc(b1-6)]Gal(b1-4)Glc
# How it was run: as §1
# Neu5Ac(a2-6)Gal(b1-4)Glc = target: Neu5Ac(a2-6)Gal(b1-4)Glc
# How it was run: as §1
# [7] = target: Neu5Ac(a2-6)Gal(b1-4)GlcNAc
# How it was run: as §1
# [8] = target: Neu5Ac(a2-6)Gal(b1-4)GlcNAc(b1-2)Man
# How it was run: as §1
# [9] = target: Neu5Ac(a2-6)Gal(b1-4)GlcNAc(b1-2)Man(a1-3)Man(b1-4)GlcNAc(b1-4)GlcNAc
# How it was run: as §1
# [10] = target: Neu5Ac(a2-6)Gal(b1-4)GlcNAc(b1-2)Man(a1-3)[Gal(b1-4)GlcNAc(b1-2)Man(a1-6)]Man(b1-4)GlcNAc(b1-4)GlcNAc
# How it was run: as §1
# [11] = target: Neu5Ac(a2-6)Gal(b1-4)GlcNAc(b1-2)Man(a1-3)[GlcNAc(b1-2)Man(a1-6)]Man(b1-4)GlcNAc(b1-4)GlcNAc
# How it was run: as §1
# [12] = target: Neu5Ac(a2-6)Gal(b1-4)GlcNAc(b1-2)Man(a1-3)[GlcNAc(b1-4)][Neu5Ac(a2-6)Gal(b1-4)GlcNAc(b1-2)Man(a1-6)]Man(b1-4)GlcNAc(b1-4)GlcNAc
# How it was run: as §1
# [13] = target: Neu5Ac(a2-6)Gal(b1-4)GlcNAc(b1-2)Man(a1-3)[Man(a1-6)]Man(b1-4)GlcNAc(b1-4)GlcNAc
# How it was run: as §1
# [14] = target: Neu5Ac(a2-6)Gal(b1-4)GlcNAc(b1-2)Man(a1-3)[Neu5Ac(a2-3)Gal(b1-4)GlcNAc(b1-2)Man(a1-6)]Man(b1-4)GlcNAc(b1-4)GlcNAc
# How it was run: as §1
# [15] = target: Neu5Ac(a2-6)Gal(b1-4)GlcNAc(b1-2)Man(a1-3)[Neu5Ac(a2-6)Gal(b1-4)GlcNAc(b1-2)Man(a1-6)]Man(b1-4)GlcNAc(b1-4)GlcNAc
# How it was run: as §1
# [16] = target: Neu5Ac(a2-6)Gal(b1-4)GlcNAc(b1-2)Man(a1-3)[Neu5Ac(a2-6)Gal(b1-4)GlcNAc(b1-2)Man(a1-6)]Man(b1-4)GlcNAc(b1-4)[Fuc(a1-6)]GlcNAc
# How it was run: as §1
# [17] = target: Neu5Ac(a2-6)Gal(b1-4)GlcNAc(b1-2)Man(a1-6)Man(b1-4)GlcNAc(b1-4)GlcNAc
# How it was run: as §1
# [18] = target: Neu5Ac(a2-6)Gal(b1-4)GlcNAc(b1-2)Man(a1-6)[Gal(b1-4)GlcNAc(b1-2)Man(a1-3)]Man(b1-4)GlcNAc(b1-4)GlcNAc
# How it was run: as §1
# [19] = target: Neu5Ac(a2-6)Gal(b1-4)GlcNAc(b1-2)Man(a1-6)[GlcNAc(b1-2)Man(a1-3)]Man(b1-4)GlcNAc(b1-4)GlcNAc
# How it was run: as §1
# [20] = target: Neu5Ac(a2-6)Gal(b1-4)GlcNAc(b1-2)Man(a1-6)[Man(a1-3)]Man(b1-4)GlcNAc(b1-4)GlcNAc
# How it was run: as §1
# [21] = target: Neu5Ac(a2-6)Gal(b1-4)GlcNAc(b1-2)[Neu5Ac(a2-6)Gal(b1-4)GlcNAc(b1-4)]Man(a1-3)[GlcNAc(b1-4)][Neu5Ac(a2-6)Gal(b1-4)GlcNAc(b1-2)[Neu5Ac(a2-6)Gal(b1-4)GlcNAc(b1-6)]Man(a1-6)]Man(b1-4)GlcNAc(b1-4)GlcNAc
# How it was run: as §1
# [22] = target: Neu5Ac(a2-6)Gal(b1-4)GlcNAc(b1-2)[Neu5Ac(a2-6)Gal(b1-4)GlcNAc(b1-4)]Man(a1-3)[GlcNAc(b1-4)][Neu5Ac(a2-6)Gal(b1-4)GlcNAc(b1-4)Man(a1-6)]Man(b1-4)GlcNAc(b1-4)GlcNAc
# How it was run: as §1
# [23] = target: Neu5Ac(a2-6)Gal(b1-4)GlcNAc(b1-2)[Neu5Ac(a2-6)Gal(b1-4)GlcNAc(b1-6)]Man(a1-6)[Neu5Ac(a2-6)Gal(b1-4)GlcNAc(b1-2)Man(a1-3)][GlcNAc(b1-4)]Man(b1-4)GlcNAc(b1-4)GlcNAc
# How it was run: as §1
# [24] = target: Neu5Ac(a2-6)Gal(b1-4)GlcNAc(b1-3)Gal(b1-3)GlcNAc
# How it was run: as §1
# [25] = target: Neu5Ac(a2-6)Gal(b1-4)GlcNAc(b1-3)Gal(b1-4)GlcNAc
# How it was run: as §1
# [26] = target: Neu5Ac(a2-6)Gal(b1-4)GlcNAc(b1-3)Gal(b1-4)GlcNAc(b1-2)Man(a1-3)[Neu5Ac(a2-6)Gal(b1-4)GlcNAc(b1-3)Gal(b1-4)GlcNAc(b1-2)Man(a1-6)]GalNAc
# How it was run: as §1
# [27] = target: Neu5Ac(a2-6)Gal(b1-4)GlcNAc(b1-3)Gal(b1-4)GlcNAc(b1-3)Gal(b1-4)GlcNAc
# How it was run: as §1
# [28] = target: Neu5Ac(a2-6)Gal(b1-4)GlcNAc(b1-3)Gal(b1-4)GlcNAc(b1-3)Gal(b1-4)GlcNAc(b1-2)Man(a1-3)[Neu5Ac(a2-6)Gal(b1-4)GlcNAc(b1-3)Gal(b1-4)GlcNAc(b1-3)Gal(b1-4)GlcNAc(b1-2)Man(a1-6)]GalNAc
# How it was run: as §1
# [29] = target: Neu5Ac(a2-6)Gal(b1-4)GlcNAc(b1-3)Gal(b1-4)GlcNAc(b1-3)GalNAc
# How it was run: as §1
# [30] = target: Neu5Ac(a2-6)Gal(b1-4)GlcNAc(b1-3)Gal(b1-4)GlcNAc(b1-3)[Neu5Ac(a2-6)Gal(b1-4)GlcNAc(b1-3)Gal(b1-4)GlcNAc(b1-6)]GalNAc
# How it was run: as §1
# [31] = target: Neu5Ac(a2-6)Gal(b1-4)GlcNAc(b1-3)Gal(b1-4)GlcNAc(b1-6)[Gal(b1-3)]GalNAc
# How it was run: as §1
# [32] = target: Neu5Ac(a2-6)Gal(b1-4)GlcNAc(b1-3)Gal(b1-4)[Fuc(a1-3)]GlcNAc(b1-3)Gal(b1-4)[Fuc(a1-3)]GlcNAc
# How it was run: as §1
# [33] = target: Neu5Ac(a2-6)Gal(b1-4)GlcNAc(b1-3)GalNAc
# How it was run: as §1
# [34] = target: Neu5Ac(a2-6)Gal(b1-4)GlcNAc(b1-3)[Neu5Ac(a2-6)Gal(b1-4)GlcNAc(b1-6)]GalNAc
# How it was run: as §1
# [35] = target: Neu5Ac(a2-6)Gal(b1-4)GlcNAc(b1-6)GalNAc
# How it was run: as §1
binder,measurement,setting,value
KILRGVCKKIMRTFLRRISKKILTGKK [C7A (Sus scrofa)],glycan array binding signal (z-score),Neu5Ac(a2-3)GalNAc,0.178
same,glycan array binding signal (z-score),[1],-0.265
same,glycan array binding signal (z-score),[2],-0.779
same,glycan array binding signal (z-score),[3],-1.31
same,glycan array binding signal (z-score),[4],1.92
same,glycan array binding signal (z-score),[5],0.241
same,glycan array binding signal (z-score),Neu5Ac(a2-6)Gal,0.871
same,glycan array binding signal (z-score),[6],-0.602
same,glycan array binding signal (z-score),Neu5Ac(a2-6)Gal(b1-4)Glc,0.609
same,glycan array binding signal (z-score),[7],0.273
same,glycan array binding signal (z-score),[8],-0.792
same,glycan array binding signal (z-score),[9],0.162
same,glycan array binding signal (z-score),[10],0.649
same,glycan array binding signal (z-score),[11],-0.766
same,glycan array binding signal (z-score),[12],-0.276
same,glycan array binding signal (z-score),[13],0.849
same,glycan array binding signal (z-score),[14],0.295
same,glycan array binding signal (z-score),[15],0.295
same,glycan array binding signal (z-score),[16],1.12
same,glycan array binding signal (z-score),[17],1.56
same,glycan array binding signal (z-score),[18],0.046
same,glycan array binding signal (z-score),[19],0.82
same,glycan array binding signal (z-score),[20],-0.747
same,glycan array binding signal (z-score),[21],-0.122
same,glycan array binding signal (z-score),[22],0.074
same,glycan array binding signal (z-score),[23],0.348
same,glycan array binding signal (z-score),[24],-0.057
same,glycan array binding signal (z-score),[25],0.296
same,glycan array binding signal (z-score),[26],-0.404
same,glycan array binding signal (z-score),[27],0.41
same,glycan array binding signal (z-score),[28],1.71
same,glycan array binding signal (z-score),[29],0.528
same,glycan array binding signal (z-score),[30],1.8
same,glycan array binding signal (z-score),[31],0.269
same,glycan array binding signal (z-score),[32],-0.054
same,glycan array binding signal (z-score),[33],1.32
same,glycan array binding signal (z-score),[34],1.39
same,glycan array binding signal (z-score),[35],1.56

# Some of the entries above, set out differently:
binder | measurement | setting | value
KILRGVCKKIMRTFLRRISKKILTGKK [C7A (Sus scrofa)] | glycan array binding signal (z-score) | [1] | -0.265
same | glycan array binding signal (z-score) | [2] | -0.779
same | glycan array binding signal (z-score) | [3] | -1.31
same | glycan array binding signal (z-score) | [4] | 1.92
same | glycan array binding signal (z-score) | [5] | 0.241
same | glycan array binding signal (z-score) | Neu5Ac(a2-6)Gal | 0.871
same | glycan array binding signal (z-score) | [6] | -0.602
same | glycan array binding signal (z-score) | Neu5Ac(a2-6)Gal(b1-4)Glc | 0.609
same | glycan array binding signal (z-score) | [7] | 0.273
same | glycan array binding signal (z-score) | [8] | -0.792
same | glycan array binding signal (z-score) | [9] | 0.162

# Reference: the supplement of paper PMC8728848
